Test results from US20230002346A1, “NEW COMPOUNDS AND METHODS” (BenevolentAl Bio Limited, priority 2019, published 2023).
Some of these results come from one statement about several compounds together.

What was measured:
[1] = test system: Salmonella typhimurium, strains TA98 and TA100; assay: Ames assay (Bacterial Reverse Mutation Test); type: cell-based; conditions: either strain, any dose level, presence or absence of S-9 mix
Method: Examples 50, 52 and 54 were tested, in vitro, for their ability to induce mutations in 2 histidine dependent auxotrophic mutants of Salmonella typhimurium, strains TA98 and TA100. The mutation screen was conducted using the plate incorporation method and was performed in both the presence and absence of S-9 mix (a liver post-mitochondrial fraction derived from the livers of Aroclor 1254 treated rats). The bacteria were exposed to the test items dissolved in DMSO, which was also the negative Control. The test items were tested up to the regulatory maximum dose level. The dose levels used were 5, 15, 50, 150, 500, 1500 or 5000 μg/plate, unless the highest treatment level of the test items was limited by solubility, or toxicity against the background bacterial lawn. Dose levels were expressed in terms of the free base.
There were no increases of 2-fold or greater in revertant numbers compared with negative Control values in either strain at any dose level in the presence or absence of S-9 mix, so Examples 50, 52 and 54 were not mutagenic in the Bacterial Reverse Mutation (i.e. Ames) Test under the conditions of this screen.

[2] = test system: 430 wild-type and mutant kinases, including a panel of lipid kinases; assay: Eurofins KinaseProfiler kinase screen; type: biochemical; conditions: top concentration of 1 μM, ATP Km, radiometric

| Structure (SMILES) | increases in revertant numbers compared with negative Control values [1] [fold] | inhibition against any of the kinases [2] [%] |
| --- | --- | --- |
| O=C(Nc1ccc(OC(F)(F)Cl)cc1)c1ccc(=O)n(-c2cncc(F)c2)c1 [Example 54, N-[4-[Chloro(difluoro)methoxy]phenyl]-1-(5-fluoro-3-pyridyl)-6-oxo-pyridine-3-carboxamide] | < 2 | ≤ 50 |
| Cn1cc(-n2cc(C(=O)Nc3ccc(OC(F)(F)Cl)cc3)ccc2=O)cn1 [Example 52, N-[4-[Chloro(difluoro)methoxy]phenyl]-1-(1-methylpyrazol-4-yl)-6-oxo-pyridine-3-carboxamide] | < 2 | – |
| O=C(Nc1ccc(OC(F)(F)F)cc1)c1ccc(=O)n(-c2cncnc2)c1 [Example 50, 6-Oxo-1-(pyrimidin-5-yl)-N-[4-(trifluoromethoxy)phenyl]-1.6-dihydropyridine-3-carboxamide] | < 2 | ≤ 50 |
